The values below come from patent US6340678B1, “4,4-difluoro-2,3,4,5-tetrahydro-1H-1-benzoazepine derivatives and drug compositions containing them” (Yamanouchi Pharmaceutical Co., Ltd., priority 1997, dated 2002).

The chains behind the UniProt entries cited, without tags or fusion partners.
UniProt P70536, whole entry: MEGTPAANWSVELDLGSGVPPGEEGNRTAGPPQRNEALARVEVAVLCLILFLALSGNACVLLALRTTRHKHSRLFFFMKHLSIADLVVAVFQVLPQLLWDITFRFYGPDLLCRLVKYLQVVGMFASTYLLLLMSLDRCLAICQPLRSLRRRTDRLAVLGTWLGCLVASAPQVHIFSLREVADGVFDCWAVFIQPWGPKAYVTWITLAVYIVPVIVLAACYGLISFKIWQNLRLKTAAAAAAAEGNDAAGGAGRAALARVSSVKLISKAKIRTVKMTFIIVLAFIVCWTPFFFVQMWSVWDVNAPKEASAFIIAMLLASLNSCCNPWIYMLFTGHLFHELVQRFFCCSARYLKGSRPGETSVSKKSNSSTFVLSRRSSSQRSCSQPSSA

The structures given here were assigned with low confidence; some may be wrong.

This assay addresses oxytocin receptor (Rattus norvegicus, UniProt P70536). Description: Oxytocin receptor binding assay ([3H]-oxytocin, rat uterine membrane sample). Conditions: [3H]-oxytocin 0.5 nM, room temperature, 60 minutes.

As for `O=C1CCN(C(=O)/C=C2/c3ccccc3N(C(=O)c3ncn(-c4ccccc4)c3C(F)(F)F)CCC2(F)F)CC1`, the “pKi (negative logarithmic value of Ki) in the oxytocin receptor binding test” value is 8.87.
